Data taken from patent US12137687B2, “Method for inducing acquired resistance in a plant” (HEINRICH HEINE UNIVERSITAET DUESSELDORF, priority 2017, dated 2024).

Assay: Pip/NHP levels in Arabidopsis leaves after Psm inoculation (GC-MS)
Assay type: in vivo, Arabidopsis thaliana
Details: 24 hpi

## O=C(O)[C@@H]1CCCCN1 [Pip, (S)-piperidine-2-carboxylic acid, reference compound]
eds1 mutant
  endogenous level as share of the wild-type level: about 14%
  endogenous level in Psm-inoculated leaves: 3.8 μg g^−1 FW
pad4 mutant
  endogenous level as share of the wild-type level: ~17%
  endogenous level in Psm-inoculated leaves: 4.6 μg g^−1 FW
